Source: PMC8642546
No constants are given. Whether binding was seen depends on the method and setting. Binding seen in cells or lysates may run through a third protein. These calls come from enrichment with a bait or labelling near it, and not all partners need be listed. No binding means not detected with the bait.

By UniProt entry, the sequences of proteins in these tests, tags left out.
UniProt B7ZBB8: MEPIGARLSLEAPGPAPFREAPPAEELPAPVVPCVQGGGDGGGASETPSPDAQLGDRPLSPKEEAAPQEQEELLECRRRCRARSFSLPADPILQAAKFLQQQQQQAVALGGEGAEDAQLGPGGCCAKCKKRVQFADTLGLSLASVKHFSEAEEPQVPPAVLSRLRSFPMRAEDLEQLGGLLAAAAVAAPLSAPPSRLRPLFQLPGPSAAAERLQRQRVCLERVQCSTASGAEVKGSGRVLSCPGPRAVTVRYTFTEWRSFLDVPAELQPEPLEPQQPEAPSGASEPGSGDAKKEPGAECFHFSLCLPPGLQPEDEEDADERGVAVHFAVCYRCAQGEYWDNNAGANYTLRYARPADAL
UniProt P62140: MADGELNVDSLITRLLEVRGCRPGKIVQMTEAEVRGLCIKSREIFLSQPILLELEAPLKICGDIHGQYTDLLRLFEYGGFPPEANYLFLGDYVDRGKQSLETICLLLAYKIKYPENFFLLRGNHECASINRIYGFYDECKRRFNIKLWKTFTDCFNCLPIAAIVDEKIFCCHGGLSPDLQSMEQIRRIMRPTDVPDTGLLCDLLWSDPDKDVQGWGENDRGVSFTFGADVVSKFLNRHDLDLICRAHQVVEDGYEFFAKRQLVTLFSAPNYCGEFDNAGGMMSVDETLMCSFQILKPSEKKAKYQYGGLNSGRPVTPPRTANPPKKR
UniProt P14618: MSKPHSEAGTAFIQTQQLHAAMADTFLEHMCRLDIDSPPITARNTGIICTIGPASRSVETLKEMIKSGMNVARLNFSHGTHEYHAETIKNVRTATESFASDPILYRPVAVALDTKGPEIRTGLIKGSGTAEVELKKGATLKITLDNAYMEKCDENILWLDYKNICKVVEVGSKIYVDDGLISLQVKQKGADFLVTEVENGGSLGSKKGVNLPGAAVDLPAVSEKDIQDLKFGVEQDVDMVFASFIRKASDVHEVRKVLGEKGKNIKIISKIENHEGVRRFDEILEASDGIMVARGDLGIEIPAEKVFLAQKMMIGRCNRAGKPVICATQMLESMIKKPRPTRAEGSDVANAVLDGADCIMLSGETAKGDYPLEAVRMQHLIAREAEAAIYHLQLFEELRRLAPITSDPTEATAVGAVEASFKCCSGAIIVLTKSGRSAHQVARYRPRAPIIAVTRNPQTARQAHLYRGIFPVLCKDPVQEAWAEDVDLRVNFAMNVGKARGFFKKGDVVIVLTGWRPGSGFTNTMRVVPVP
UniProt P62136: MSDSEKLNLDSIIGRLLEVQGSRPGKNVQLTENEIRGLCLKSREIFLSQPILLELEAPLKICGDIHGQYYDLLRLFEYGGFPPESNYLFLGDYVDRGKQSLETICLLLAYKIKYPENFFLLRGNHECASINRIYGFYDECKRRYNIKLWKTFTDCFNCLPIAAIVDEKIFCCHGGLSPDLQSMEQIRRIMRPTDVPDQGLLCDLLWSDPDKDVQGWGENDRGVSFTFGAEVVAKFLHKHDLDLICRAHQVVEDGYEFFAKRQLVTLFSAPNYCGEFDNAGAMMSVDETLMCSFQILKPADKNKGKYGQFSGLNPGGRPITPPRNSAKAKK

biological target: 3xFLAG-tagged PPP1R3G (protein phosphatase 1 regulatory subunit 3G), stably expressed in PPP1R3G-Rescue HT-29 cells (human) (UniProt B7ZBB8); experiment: affinity purification with mass spectrometry; anti-FLAG IP from lysates of PPP1R3G-Rescue cells (3xFLAG-PPP1R3G) with PPP1R3G-KO-1 cells as control, then mass spectrometry; lysis buffer 50 mM Tris pH 7.4, 137 mM NaCl, 1 mM EDTA, 1% Triton X-100, 10% glycerol, 4 °C

binding	Molecule
no binding	PP1β (protein phosphatase 1 catalytic subunit beta), endogenous in HT-29 cells (from UniProt P62140 1-327) (enzyme)
binds	pyruvate kinase PKM, endogenous in HT-29 cells (from UniProt P14618 1-531) (enzyme)
no binding	PP1α (protein phosphatase 1 catalytic subunit alpha), endogenous in HT-29 cells (from UniProt P62136 1-330) (enzyme)
binds	protein phosphatase 1 gamma (PP1γ), endogenous in HT-29 cells (from UniProt P36873-1 1-323) (enzyme)
binds	hexokinase 1 (HK1), endogenous in HT-29 cells (enzyme, UniProt P19367 1-917) MIAAQLLAYYFTELKDDQVKKIDKYLYAMRLSDETLIDIMTRFRKEMKNGLSRDFNPTATVKMLPTFVRSIPDGSEKGDFIALDLGGSSFRILRVQVNHEKNQNVHMESEVYDTPENIVHGSGSQLFDHVAECLGDFMEKRKIKDKKLPVGFTFSFPCQQSKIDEAILITWTKRFKASGVEGADVVKLLNKAIKKRGDYDANIVAVVNDTVGTMMTCGYDDQHCEVGLIIGTGTNACYMEELRHIDLVEGDEGRMCINTEWGAFGDDGSLEDIRTEFDREIDRGSLNPGKQLFEKMVSGMYLGELVRLILVKMAKEGLLFEGRITPELLTRGKFNTSDVSAIEKNKEGLHNAKEILTRLGVEPSDDDCVSVQHVCTIVSFRSANLVAATLGAILNRLRDNKGTPRLRTTVGVDGSLYKTHPQYSRRFHKTLRRLVPDSDVRFLLSESGSGKGAAMVTAVAYRLAEQHRQIEETLAHFHLTKDMLLEVKKRMRAEMELGLRKQTHNNAVVKMLPSFVRRTPDGTENGDFLALDLGGTNFRVLLVKIRSGKKRTVEMHNKIYAIPIEIMQGTGEELFDHIVSCISDFLDYMGIKGPRMPLGFTFSFPCQQTSLDAGILITWTKGFKATDCVGHDVVTLLRDAIKRREEFDLDVVAVVNDTVGTMMTCAYEEPTCEVGLIVGTGSNACYMEEMKNVEMVEGDQGQMCINMEWGAFGDNGCLDDIRTHYDRLVDEYSLNAGKQRYEKMISGMYLGEIVRNILIDFTKKGFLFRGQISETLKTRGIFETKFLSQIESDRLALLQVRAILQQLGLNSTCDDSILVKTVCGVVSRRAAQLCGAGMAAVVDKIRENRGLDRLNVTVGVDGTLYKLHPHFSRIMHQTVKELSPKCNVSFLLSEDGSGKGAALITAVGVRLRTEASS
binds	glycogen phosphorylase (PYGB), endogenous in HT-29 cells (enzyme, UniProt P11216 1-843) MAKPLTDSEKRKQISVRGLAGLGDVAEVRKSFNRHLHFTLVKDRNVATPRDYFFALAHTVRDHLVGRWIRTQQHYYERDPKRIYYLSLEFYMGRTLQNTMVNLGLQNACDEAIYQLGLDLEELEEIEEDAGLGNGGLGRLAACFLDSMATLGLAAYGYGIRYEFGIFNQKIVNGWQVEEADDWLRYGNPWEKARPEYMLPVHFYGRVEHTPDGVKWLDTQVVLAMPYDTPVPGYKNNTVNTMRLWSAKAPNDFKLQDFNVGDYIEAVLDRNLAENISRVLYPNDNFFEGKELRLKQEYFVVAATLQDIIRRFKSSKFGCRDPVRTCFETFPDKVAIQLNDTHPALSIPELMRILVDVEKVDWDKAWEITKKTCAYTNHTVLPEALERWPVSMFEKLLPRHLEIIYAINQRHLDHVAALFPGDVDRLRRMSVIEEGDCKRINMAHLCVIGSHAVNGVARIHSEIVKQSVFKDFYELEPEKFQNKTNGITPRRWLLLCNPGLADTIVEKIGEEFLTDLSQLKKLLPLVSDEVFIRDVAKVKQENKLKFSAFLEKEYKVKINPSSMFDVHVKRIHEYKRQLLNCLHVVTLYNRIKRDPAKAFVPRTVMIGGKAAPGYHMAKLIIKLVTSIGDVVNHDPVVGDRLKVIFLENYRVSLAEKVIPAADLSQQISTAGTEASGTGNMKFMLNGALTIGTMDGANVEMAEEAGAENLFIFGLRVEDVEALDRKGYNAREYYDHLPELKQAVDQISSGFFSPKEPDCFKDIVNMLMHHDRFKVFADYEAYMQCQAQVDQLYRNPKEWTKKVIRNIACSGKFSSDRTITEYAREIWGVEPSDLQIPPPNIPRD
